From the supplement of paper PMC5407854, “Inhibitor of ppGalNAc-T3-mediated O-glycosylation blocks cancer cell invasiveness and lowers FGF23 levels” (eLife, 2017)
The list shows a part of the results. Small differences around the control level are noise.

System: ppGalNAc-T2 sensor
Experiment: T2 sensor activation Q score (MG/GFP ratio z-score vs DMSO controls) (SD units); higher = more sensor activation (inhibition of ppGalNAc-T2 glycosylation)
Conditions: HEK293 sensor cells; 10 µM; 6 h
Description: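 Cells were treated with compound at 10 uM for 6 h, then MG/GFP ratio was read by flow cytometry (10,000 cells per well, duplicate wells). Q = (R - R_neg)/SD_neg relative to DMSO vehicle controls; the signal rises when the glycosyltransferase is inhibited.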

Row | Compound | T2 sensor activation Q score
1 | Cc1ccc(S(=O)(=O)N2CCN(CCCc3ccccc3)CC2)cc1 | -0.815
2 | CN1CCN(C(=O)Nc2ccccc2)CC1 | -0.72
3 | CN1C(=O)C(=O)C(=C(O)c2ccccc2)C1c1ccccc1F (stereo not given) | -0.91
4 | Cc1cccc(OCC(=O)Nc2cc(Cl)ccc2C)c1 | -0.28
5 | O=C(COc1ccc(Cl)cc1Cl)N1CCCC1 | -0.175
6 | CC(=Nc1ccccc1)Nc1ccccc1 | -0.185
7 | CCC(C(=O)Nc1cccc(C)c1C)c1ccccc1 (stereo not given) | 1.49
8 | COc1cc(O)c(C(=O)c2ccccc2)cc1[N+](=O)[O-] | -1
9 | CN(C)CCN(C)Cc1ccccc1 | -0.245
10 | Fc1ccc(OCCCN2CCOCC2)cc1 | 1.61
11 | Cc1cccc(N2CCN(Cc3ccco3)CC2)c1C | -0.235
12 | O=S(=O)(Nc1ccccc1Cl)c1ccc(F)cc1 | -0.665
13 | O=[N+]([O-])c1ccccc1Oc1ccccc1 | -0.27
14 | c1ccc(NC(c2ccccc2)c2ccncc2)cc1 (stereo not given) | -0.685
15 | COc1cc(N)c(Cl)cc1NC(=O)c1ccccc1 | -0.88
16 | COc1ccc2c(Cl)c(C(=O)N3CCCCC3)sc2c1 | -0.155
17 | COc1ccccc1CNC(=O)CCc1ccccc1 | -1.18
18 | CN1CCN(C2CC(=O)N(c3ccc(F)cc3)C2=O)CC1 (stereo not given) | -0.49
19 | Cc1ccc(C)c(NS(=O)(=O)c2ccc(Cl)cc2)c1 | -1.03
20 | CCN(CCN(C)C)Cc1ccc(F)cc1 | -0.055

Row | Compound | T2 sensor activation Q score
21 | COc1ccc(CCNC(=O)C2CCCCC2)cc1OC | -0.81
22 | Cc1ccc(C)c(C(C)NC(=O)C(C)Oc2ccccc2)c1 (stereo not given) | -0.1
23 | COC(=O)Nc1nc2ccc(C(=O)c3ccccc3)cc2[nH]1 | -0.435
24 | COc1cccc(Nc2nc(-c3ccccc3)cs2)c1 | -0.79
25 | O=C(Nc1ccc(Cl)cc1)c1ccc2nc3ccccc3nc2c1 | 0.625
26 | O=C(Nc1ccc(-c2ccccc2)cc1)c1ccccc1Br | -1.42
27 | C=CCOc1ccccc1CN1CCCCC1 | -0.105
28 | CCc1ccccc1NS(=O)(=O)c1ccc(Cl)cc1 | -0.605
29 | Cc1ccccc1OCC(=O)Nc1cc(Cl)ccc1Cl | -0.065
30 | Cc1ccc(S(=O)(=O)NCCO)cc1 | -0.25
31 | CCOc1ccc(CN2CCN(c3ccccn3)CC2)cc1 | 1.49
32 | CC(C)(C)S(=O)(=O)c1ccc(-c2ccccc2)cc1 | -0.745
33 | COc1cc(OC)c(OC)cc1CN1CCN(C/C=C/c2ccccc2)CC1 | -1.06
34 | COc1ccc(CN2CCN(c3ccc(Cl)cc3)CC2)c(OC)c1OC | 0.275
35 | O=C(COc1ccccc1O)NO | -1.24
36 | C=CCN1C(=O)C(O)=C(C(C)=O)C1c1ccc(Br)cc1 (stereo not given) | -0.61
37 | O=C1CC(N2CCCCC2)C(=O)N1c1cccc(Cl)c1 (stereo not given) | 0.48
38 | CN(C)c1ccc(/C=C/CN2CCN(c3ccccc3F)CC2)cc1 | 1.06
39 | CCCC(O)=C1C(=O)CC(C)(C)CC1=Nc1cccc([N+](=O)[O-])c1 | -0.015
40 | O=C(O)c1cc(C2CC2)nc2ccccc12 | -0.85

For reference, some entries already given.
Row | Compound | T2 sensor activation Q score
37 | O=C1CC(N2CCCCC2)C(=O)N1c1cccc(Cl)c1 (stereo not given) | 0.48
38 | CN(C)c1ccc(/C=C/CN2CCN(c3ccccc3F)CC2)cc1 | 1.06
39 | CCCC(O)=C1C(=O)CC(C)(C)CC1=Nc1cccc([N+](=O)[O-])c1 | -0.015
